Paper PMC10397244
No constants are given. Whether binding was seen depends on the method and setting. Binding seen in cells or lysates may run through a third protein. Some results given as binding are weak or reduced against the parent protein; the word gives no strength. Where a sequence is shown, tags or fusion partners need not be part of it.

T1: PUB39-nYFP (Arabidopsis thaliana) (UniProt Q9STT1)
T1 sequence: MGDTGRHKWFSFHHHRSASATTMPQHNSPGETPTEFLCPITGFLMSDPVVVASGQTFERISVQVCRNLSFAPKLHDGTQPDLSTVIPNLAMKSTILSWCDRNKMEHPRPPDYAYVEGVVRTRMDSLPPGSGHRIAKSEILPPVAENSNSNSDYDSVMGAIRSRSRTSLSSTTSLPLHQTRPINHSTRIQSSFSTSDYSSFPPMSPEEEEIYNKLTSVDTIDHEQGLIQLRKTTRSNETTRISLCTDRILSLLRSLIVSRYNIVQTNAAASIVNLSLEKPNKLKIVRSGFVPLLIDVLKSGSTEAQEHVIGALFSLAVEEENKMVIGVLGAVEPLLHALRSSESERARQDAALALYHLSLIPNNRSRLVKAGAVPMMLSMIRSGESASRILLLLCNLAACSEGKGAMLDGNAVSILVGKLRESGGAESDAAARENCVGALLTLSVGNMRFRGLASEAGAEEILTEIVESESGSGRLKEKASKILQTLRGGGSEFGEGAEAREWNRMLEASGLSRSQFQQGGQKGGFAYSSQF

T2: PUB25-nYFP (Arabidopsis thaliana) (UniProt Q9LT79)
T2 sequence: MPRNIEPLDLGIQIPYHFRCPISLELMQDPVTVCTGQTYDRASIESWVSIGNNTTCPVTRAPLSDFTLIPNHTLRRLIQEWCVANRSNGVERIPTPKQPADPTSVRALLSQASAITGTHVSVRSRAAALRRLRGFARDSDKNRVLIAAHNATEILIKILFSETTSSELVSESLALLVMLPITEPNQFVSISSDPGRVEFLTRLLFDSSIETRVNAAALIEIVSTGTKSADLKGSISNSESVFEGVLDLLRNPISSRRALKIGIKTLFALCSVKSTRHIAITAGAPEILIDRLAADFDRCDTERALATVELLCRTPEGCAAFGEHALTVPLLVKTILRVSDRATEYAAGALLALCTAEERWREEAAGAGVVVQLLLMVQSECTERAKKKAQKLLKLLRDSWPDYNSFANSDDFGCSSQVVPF

T3: PBL13-nYFP (Arabidopsis thaliana) (UniProt F4JZW1)
T3 sequence: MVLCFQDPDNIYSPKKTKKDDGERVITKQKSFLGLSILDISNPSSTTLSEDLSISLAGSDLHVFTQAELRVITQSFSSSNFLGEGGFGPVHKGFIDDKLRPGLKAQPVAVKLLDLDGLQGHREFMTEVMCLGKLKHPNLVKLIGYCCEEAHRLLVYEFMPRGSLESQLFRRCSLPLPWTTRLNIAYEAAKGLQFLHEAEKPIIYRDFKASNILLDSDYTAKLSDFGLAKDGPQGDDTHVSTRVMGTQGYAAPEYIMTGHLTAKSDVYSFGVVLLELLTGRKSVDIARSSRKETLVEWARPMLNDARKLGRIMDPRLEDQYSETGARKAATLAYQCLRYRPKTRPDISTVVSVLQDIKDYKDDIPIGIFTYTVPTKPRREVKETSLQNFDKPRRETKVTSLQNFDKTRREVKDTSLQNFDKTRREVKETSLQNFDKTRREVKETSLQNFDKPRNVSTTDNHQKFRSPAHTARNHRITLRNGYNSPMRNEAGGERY

T4: BIK1-nYFP (Arabidopsis thaliana) (UniProt O48814)
T4 sequence: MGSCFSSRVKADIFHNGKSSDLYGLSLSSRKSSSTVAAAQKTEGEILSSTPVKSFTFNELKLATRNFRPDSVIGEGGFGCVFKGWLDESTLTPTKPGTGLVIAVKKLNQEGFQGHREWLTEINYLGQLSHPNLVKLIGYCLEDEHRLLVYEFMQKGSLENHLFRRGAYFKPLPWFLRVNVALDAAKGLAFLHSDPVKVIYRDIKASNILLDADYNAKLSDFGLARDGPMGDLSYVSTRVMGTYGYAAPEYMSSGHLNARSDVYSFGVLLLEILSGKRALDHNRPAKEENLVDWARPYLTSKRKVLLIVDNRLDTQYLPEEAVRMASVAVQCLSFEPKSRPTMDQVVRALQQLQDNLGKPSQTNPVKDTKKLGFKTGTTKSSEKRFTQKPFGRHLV

T5: RGLG2-FLAG (Arabidopsis thaliana) (UniProt Q9LY87)
T5 sequence: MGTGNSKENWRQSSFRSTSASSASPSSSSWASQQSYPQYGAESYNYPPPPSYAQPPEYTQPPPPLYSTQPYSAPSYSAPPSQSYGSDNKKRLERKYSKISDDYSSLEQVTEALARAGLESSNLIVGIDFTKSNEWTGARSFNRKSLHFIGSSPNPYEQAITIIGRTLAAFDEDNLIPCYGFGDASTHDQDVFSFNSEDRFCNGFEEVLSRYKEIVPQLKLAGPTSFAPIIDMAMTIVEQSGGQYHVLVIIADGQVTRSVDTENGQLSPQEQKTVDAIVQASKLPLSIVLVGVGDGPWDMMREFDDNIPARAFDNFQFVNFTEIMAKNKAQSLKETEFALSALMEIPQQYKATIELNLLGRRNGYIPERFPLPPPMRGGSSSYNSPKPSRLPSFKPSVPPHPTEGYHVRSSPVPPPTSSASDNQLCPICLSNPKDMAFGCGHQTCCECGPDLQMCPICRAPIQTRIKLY


What was measured:
[1] = biological target: T1, PUB39-nYFP (Arabidopsis thaliana); assay: split reporter; BiFC: nYFP and cYFP fusions transfected into Arabidopsis protoplasts, confocal microscopy
[2] = biological target: T2, PUB25-nYFP (Arabidopsis thaliana); assay: as above
[3] = biological target: T3, PBL13-nYFP (Arabidopsis thaliana); assay: as above
[4] = biological target: T4, BIK1-nYFP (Arabidopsis thaliana); assay: as above
[5] = biological target: T5, RGLG2-FLAG (Arabidopsis thaliana); assay: co-IP; Arabidopsis protoplasts co-transfected with pHBT plasmids, 10 h; with or without 2.5 uM flg22 for 30 min (some with MG132; Col-0, bak1 or rglg1 rglg2 protoplasts); IP with anti-FLAG antibodies and protein G agarose, 4 C; 10 mM HEPES pH 7.5, 100 mM NaCl, 0.5% Triton X-100

| binding [1] | binding [2] | binding [3] | binding [4] | binding [5] | Binder |
| --- | --- | --- | --- | --- | --- |
| no binding | binds | no binding | binds |  | RGLG1-cYFP (protein, UniProt Q9SS90 1-489) MGGGNSKEESSSPSSSSWASHQSYPQYGPDSYNYPPPPTYAPAPSPAPAPAPVPAPSPASSYGPQYSQEGYASQPNNPPPPTYAPAPSPASSYGHQYSQEGYASAASQPNYPPPPSQSQVADRKKFDRRYSKISDNYSSLLQVSEALGRAGLESSNLIVGIDFTKSNEWTGAKSFNRKSLHHLSNTPNPYEQAITIIGRTLAAFDEDNLIPCYGFGDASTHDQDVFSFYPEGRFCNGFEEVLARYREIVPQLKLAGPTSFAPIIEMAMTVVEQSSGQYHVLVIIADGQVTRSVDTEHGRLSPQEQKTVDAIVKASTLPLSIVLVGVGDGPWDMMQEFDDNIPARAFDNFQFVNFTEIMSKNKDQSRKETEFALSALMEIPPQYKATIELNLLGVRNGNIPQRIPLPPPVQSGSSFSSSRIPNFEPSVPPYPFESKQMSSADDIQLCPICLSNPKNMAFGCGHQTCCECGPDLKVCPICRAPIQTRIKLY |
|  |  |  |  | binds | BAK1-HA (receptor, UniProt Q94F62 26-615) NAEGDALSALKNSLADPNKVLQSWDATLVTPCTWFHVTCNSDNSVTRVDLGNANLSGQLVMQLGQLPNLQYLELYSNNITGTIPEQLGNLTELVSLDLYLNNLSGPIPSTLGRLKKLRFLRLNNNSLSGEIPRSLTAVLTLQVLDLSNNPLTGDIPVNGSFSLFTPISFANTKLTPLPASPPPPISPTPPSPAGSNRITGAIAGGVAAGAALLFAVPAIALAWWRRKKPQDHFFDVPAEEDPEVHLGQLKRFSLRELQVASDNFSNKNILGRGGFGKVYKGRLADGTLVAVKRLKEERTQGGELQFQTEVEMISMAVHRNLLRLRGFCMTPTERLLVYPYMANGSVASCLRERPESQPPLDWPKRQRIALGSARGLAYLHDHCDPKIIHRDVKAANILLDEEFEAVVGDFGLAKLMDYKDTHVTTAVRGTIGHIAPEYLSTGKSSEKTDVFGYGVMLLELITGQRAFDLARLANDDDVMLLDWVKGLLKEKKLEALVDVDLQGNYKDEEVEQLIQVALLCTQSSPMERPKMSEVVRMLEGDGLAERWEEWQKEEMFRQDFNYPTHHPAVSGWIIGDSTSQIENEYPSGPR |
